PubChem BioAssay AID1508587 – Peter MacCallum Cancer Centre | 2020
Test: 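Follow-up of vemurafenib sensitisers scored by lactate made per cell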 (follow-up of hits). Cells: human WM266.4 melanoma cells with a BRAF V600 mutation. Reagents: single siRNA against human genes, 25 nM. Duration: 96 h. Challenge: vemurafenib 300 nM (about IC25), given 48 h after transfection for 48 h. Measurement: 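Per-cell lactate from absorbance divided by DAPI nucleus counts, compared with and without vemurafenib, relative to non-targeting siRNA, mean of 2 replicates; nuclear counts also give cell number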. Scale: lactate per cell, drug vs no drug: higher = less drug-induced drop in lactate per cell; lactate per cell with vemurafenib: higher = more lactate per cell under drug; lactate per cell without drug: higher = more lactate per cell without drug; cell growth with vemurafenib and cell growth without drug: higher = more cell growth over 48 h. Hit rule: 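a duplex is active when its lactate-per-cell ratio with versus without drug falls under 0.55, i.e. 2 SD below non-targeting; a gene is confirmed if 2 or more of 4 duplexes pass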.
The whole screen tested about 1,600 reagents; shown is an unselected part. In the full data, 623 (39%) were called active. 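Calls are for each duplex; lactate ratios contain extreme outliers.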

target | PubChem SID | lactate per cell, drug vs no drug | lactate per cell with vemurafenib | lactate per cell without drug | cell growth with vemurafenib | cell growth without drug | call
KRTAP10-10 | SID134280418 | 0.5 | 1.54 | 2.12 | 0.04 | 0.07 | active
KRTAP10-10 | SID134280419 | 0.58 | 0.7 | 0.82 | 0.88 | 0.84 | inactive
KRTAP10-10 | SID134280420 | 0.64 | 0.76 | 0.8 | -0.14 | 0.08 | inactive
KRTAP10-10 | SID135615666 | 0.9 | 2.06 | 1.62 | 0.11 | 0.34 | inactive
TRAPPC1 | SID134261685 | 0.52 | 1.1 | 1.5 | 0.5 | 0.54 | active
TRAPPC1 | SID134261686 | 0.3 | 0.4 | 0.98 | 0.2 | 0.37 | active
TRAPPC1 | SID134261688 | 0.77 | 1.09 | 1.05 | 0.87 | 0.96 | inactive
TRAPPC1 | SID135614222 | 0.72 | 1.33 | 1.34 | 0.93 | 0.76 | inactive
PRPF40B | SID134257973 | 0.37 | 0.57 | 1.09 | 0.38 | 0.48 | active
PRPF40B | SID134257974 | 0.55 | 1.08 | 1.35 | 0.97 | 0.67 | inactive
PRPF40B | SID134257975 | 0.53 | 1.8 | 2.3 | 0.52 | 0.27 | active
PRPF40B | SID134257976 | 0.4 | 1.58 | 2.68 | 0.04 | 0.04 | active
MSH3 | SID134283485 | 0.81 | 2.67 | 2.21 | 0.02 | 0.12 | inactive
MSH3 | SID134283486 | 0.64 | 1.86 | 1.89 | 0.68 | 0.45 | inactive
MSH3 | SID134283487 | 1.23 | 1.84 | 0.98 | 0 | 0.25 | inactive
MSH3 | SID134283488 | 0.44 | 0.46 | 0.68 | 0.45 | 0.88 | active
USP2 | SID134235685 | 0.14 | 0.16 | 0.7 | 0.16 | 0.3 | active
USP2 | SID134235686 | 0.63 | 3.31 | 3.1 | 0.16 | 0.11 | inactive
USP2 | SID134235688 | 0.77 | 1.87 | 1.44 | -0.06 | 0.19 | inactive
USP2 | SID135611992 | 0.74 | 1.22 | 0.97 | 1.14 | 1.13 | inactive
ASGR2 | SID134252005 | 0.56 | 0.86 | 0.92 | 0.84 | 0.86 | inactive
ASGR2 | SID134252006 | 0.48 | 0.87 | 1.06 | 0.66 | 0.65 | active
ASGR2 | SID134252007 | 0.51 | 1.39 | 1.65 | 0.23 | 0.19 | active
ASGR2 | SID134252008 | 0.52 | 0.94 | 1.1 | 0.48 | 0.5 | active
FAM156A | SID134275969 | 0.6 | 4.3 | 4.96 | 0.03 | 0.01 | inactive
FAM156A | SID134275970 | 1.18 | 2.7 | 1.55 | -0.04 | 0.03 | inactive
FAM156A | SID134275971 | 0.64 | 1.15 | 1.18 | 0.63 | 0.49 | inactive
FAM156A | SID134275972 | 0.38 | 0.68 | 1.17 | 0.2 | 0.25 | active
ZDHHC8 | SID134263205 | 0.42 | 1.4 | 2.47 | 0.15 | 0.04 | active
ZDHHC8 | SID134263206 | 0.5 | 0.62 | 0.89 | 0.57 | 0.83 | active
ZDHHC8 | SID134263207 | 0.6 | 0.89 | 1.12 | 1 | 0.67 | inactive
ZDHHC8 | SID134263208 | 1.21 | 2.87 | 1.8 | -0.17 | -0.02 | inactive
ADD1 | SID134246613 | 0.56 | 0.75 | 0.8 | 0.59 | 1.18 | inactive
ADD1 | SID134246614 | 0.3 | 0.7 | 1.4 | 0.44 | 0.14 | active
ADD1 | SID134246615 | 0.62 | 1.42 | 1.32 | 0.31 | 0.42 | inactive
ADD1 | SID134246616 | 0.65 | 1.18 | 1.08 | 0.54 | 0.75 | inactive

Not a retest: entries from further up.
target | PubChem SID | lactate per cell, drug vs no drug | lactate per cell with vemurafenib | lactate per cell without drug | cell growth with vemurafenib | cell growth without drug | call
USP2 | SID134235686 | 0.63 | 3.31 | 3.1 | 0.16 | 0.11 | inactive
USP2 | SID134235688 | 0.77 | 1.87 | 1.44 | -0.06 | 0.19 | inactive
USP2 | SID135611992 | 0.74 | 1.22 | 0.97 | 1.14 | 1.13 | inactive
ASGR2 | SID134252005 | 0.56 | 0.86 | 0.92 | 0.84 | 0.86 | inactive
ASGR2 | SID134252006 | 0.48 | 0.87 | 1.06 | 0.66 | 0.65 | active
ASGR2 | SID134252007 | 0.51 | 1.39 | 1.65 | 0.23 | 0.19 | active
